No constants are given. Whether binding was seen depends on the method and setting. Where a sequence is shown, tags or fusion partners need not be part of it.

Binding data for four molecules are collected here from paper PMC12756210, “Calcium signaling-mediated phosphorylation controls zinc allocation in Arabidopsis” (Stress Biology, 2025).

The target in the assay is GST alone. Kind of assay: pull-down; GST-ZIP2-Loop (or GST) on glutathione beads incubated with His-CIPK3/9/23/26; eluate blotted with anti-His antibody; both purified.

B1: CIPK3-His (protein, UniProt Q2V452 1-441)
chain: MNRRQQVKRRVGKYEVGRTIGEGTFAKVKFARNSETGEPVALKILDKEKVLKHKMAEQIRREIATMKLIKHPNVVQLYEVMASKTKIFIILEYVTGGELFDKIVNDGRMKEDEARRYFQQLIHAVDYCHSRGVYHRDLKPENLLLDSYGNLKISDFGLSALSQQVRDDGLLHTSCGTPNYVAPEVLNDRGYDGATADMWSCGVVLYVLLAGYLPFDDSNLMNLYKKISSGEFNCPPWLSLGAMKLITRILDPNPMTRVTPQEVFEDEWFKKDYKPPVFEERDDSNMDDIDAVFKDSEEHLVTEKREEQPAAINAFEIISMSRGLNLENLFDPEQEFKRETRITLRGGANEIIEKIEEAAKPLGFDVQKKNYKMRLENVKAGRKGNLNVATEIFQVAPSLHMVQVSKSKGDTLEFHKFYKKLSNSLEQVVWTNNEVKKETAK
In the case of B1, the binding entry is given as “no binding”.

B2: CIPK23-His (protein, UniProt Q93VD3 1-482)
chain: MASRTTPSRSTPSRSTPSGSSSGGRTRVGKYELGRTLGEGTFAKVKFARNVENGDNVAIKVIDKEKVLKNKMIAQIKREISTMKLIKHPNVIRMFEVMASKTKIYFVLEFVTGGELFDKISSNGRLKEDEARKYFQQLINAVDYCHSRGVYHRDLKPENLLLDANGALKVSDFGLSALPQQVREDGLLHTTCGTPNYVAPEVINNKGYDGAKADLWSCGVILFVLMAGYLPFEDSNLTSLYKKIFKAEFTCPPWFSASAKKLIKRILDPNPATRITFAEVIENEWFKKGYKAPKFENADVSLDDVDAIFDDSGESKNLVVERREEGLKTPVTMNAFELISTSQGLNLGSLFEKQMGLVKRKTRFTSKSSANEIVTKIEAAAAPMGFDVKTNNYKMKLTGEKSGRKGQLAVATEVFQVAPSLYMVEMRKSGGDTLEFHKFYKNLTTGLKDIVWKTIDEEKEEGTDGGGTNGAMANRTIAKQST
In the case of B2, the binding result is given as “no binding”.

B3: CIPK9-His (protein, UniProt Q9MAM1 1-447)
chain: MSGSRRKATPASRTRVGNYEMGRTLGEGSFAKVKYAKNTVTGDQAAIKILDREKVFRHKMVEQLKREISTMKLIKHPNVVEIIEVMASKTKIYIVLELVNGGELFDKIAQQGRLKEDEARRYFQQLINAVDYCHSRGVYHRDLKPENLILDANGVLKVSDFGLSAFSRQVREDGLLHTACGTPNYVAPEVLSDKGYDGAAADVWSCGVILFVLMAGYLPFDEPNLMTLYKRICKAEFSCPPWFSQGAKRVIKRILEPNPITRISIAELLEDEWFKKGYKPPSFDQDDEDITIDDVDAAFSNSKECLVTEKKEKPVSMNAFELISSSSEFSLENLFEKQAQLVKKETRFTSQRSASEIMSKMEETAKPLGFNVRKDNYKIKMKGDKSGRKGQLSVATEVFEVAPSLHVVELRKTGGDTLEFHKFYKNFSSGLKDVVWNTDAAAEEQKQ
For B3, the binding entry is on record as “no binding”.

B4: CIPK26-His (protein, UniProt Q84VQ3 1-439)
chain: MNRPKVQRRVGKYEVGKTLGQGTFAKVRCAVNTETGERVALKILDKEKVLKHKMAEQIRREICTMKLINHPNVVRLYEVLASKTKIYIVLEFGTGGELFDKIVHDGRLKEENARKYFQQLINAVDYCHSRGVYHRDLKPENLLLDAQGNLKVSDFGLSALSRQVRGDGLLHTACGTPNYAAPEVLNDQGYDGATADLWSCGVILFVLLAGYLPFEDSNLMTLYKKIIAGEYHCPPWLSPGAKNLIVRILDPNPMTRITIPEVLGDAWFKKNYKPAVFEEKEEANLDDVDAVFKDSEEHHVTEKKEEQPTSMNAFELISMSRALDLGNLFEEEEGFKRETRFAAKGAANDLVQKIEEASKPLGFDIQKKNYKMRLENVTAGRKGNLRVATEIFQVSPSLHMIEVRKTKGDTLEFHKFYKKLSTSLNDVVWKSGESSGLSK
For the molecule B4, the binding result was “no binding”.
